Experimental data reported in patent US11903926B1, “Non-hormonal treatment of hot flashes” (priority 2012, dated 2024).
The name of at least one read-out is uncertain.

Test system: women with dramatic vasomotor hot flashes and sleep disruption
Test: Clinical study of six women with vasomotor hot flashes and sleep disruption, symptoms graded 0-4
Format: in vivo
Details: for Hot Flash Severity: grade 0-4 (duration), average of six women; for Hot Flash Severity / Falling Asleep / Sweating / Wakings: up to four weeks; for Hot Flash Severity / Hot Flash Frequency / Sweating: untreated = 3; for Hot Flash Frequency / Falling Asleep / Sweating / Wakings: grade 0-4, average of six women; for Hot Flash Frequency: end of treatment period (up to four weeks), ropinirole 4 mg, tizanidine 4 mg, clonidine 0.1 mg, rotigotine 1 mg, pramipexole 1.5 mg, chlorpromazine 25 mg, haloperidol 1 mg, venlafaxine 75 mg, paroxetine 20 mg, gabapentin 300 mg, pregabilin 50 mg; for Falling Asleep: untreated = 2; for Wakings: untreated = 4
Procedure: Patients were on each regimen at the doses cited for up to four weeks.
Symptoms were evaluated on a scale from 0 to 4, with 0 being not affected, 1 being mild, 2 being moderate, 3 being severe, and 4 being a very severe expression of either vasomotor symptom frequency, severity, sweating, falling asleep and waking during the night for each patient and evaluated at the end of the treatment period. The findings reported are based on an average of the reported symptoms of the six women studied.
Specifically, regarding hot flash frequency, evaluation was based upon the number of hot flashes per day. The frequency of hot flashes was graded on a scale of 0-4, with 0 as none detected, 1 as 1-4/day (mild), 2 as 5-8/day (moderate), 3 as 9-12/day (severe), and 4 as more than 12/day (very severe).
The severity of the hot flashes, reflecting hot flash duration, was also graded on a scale of 0-4, with 0 being not detected, 1 being mild (less than 1 minute), 2 moderate (1-2 minutes), 3 severe (2-3 minutes), and 4 very severe (greater than 4 minutes). This evaluation reflects the duration and intensity as rated by the individual.
The sweating response was graded on a scale of 0-4 as well, with 0 being not detected, 1 being mild (minimally moist skin), 2 moderate (moisture of the skin), 3 severe (noticeable perspiration, hair, ears, neck, chest), and 4 very severe (soaking sweat).
Falling asleep was also graded on a scale of 0-4, with 0 being no issue (less than 15 minutes), 1 being mild (15-20 minutes), 2 moderate (20-40 minutes), 3 severe (40-60 minutes), and 4 very severe (greater than 60 minutes).
Wakings were graded on a scale of 0-4 as well, with 0 being not detected, 1 being mild (1-5 wakings/night), 2 moderate (5-10 wakings/night), 3 severe (10-15 wakings/night), and 4 very severe (greater than 15 wakings/night).
The D2 receptor family (D2, D3 or D4) agonists ropinirole, rotigotine and pramipexole were examined, and contrasted with D2 receptor family antagonists chlorpromazine or haloperidol. Ropinirole and pramipexole were evaluated alone and with either alpha-2-adrenergic agonist tizanidine or clonidine.
Venlafaxine, paroxetine, gabapentin, and pregabilin were also evaluated in comparison with tizanidine.

Row | Structure (SMILES) | Hot Flash Severity | Hot Flash Frequency | Falling Asleep | Sweating | Wakings
1 | CN(C)CCCN1c2ccccc2Sc2ccc(Cl)cc21 [Chlorpromazine, chlorpromazine] | 4 (4 very severe (greater than 4 minutes)) | 4 (4 as more than 12/day (very severe)) | 0 (0 being no issue (less than 15 minutes)) | 4 | 4 (4 very severe (greater than 15 wakings/night))
2 | O=C(CCCN1CCC(O)(c2ccc(Cl)cc2)CC1)c1ccc(F)cc1 [Haloperidol, haloperidol] | 4 (4 very severe (greater than 4 minutes)) | 4 (4 as more than 12/day (very severe)) | 0 (0 being no issue (less than 15 minutes)) | 4 | 4 (4 very severe (greater than 15 wakings/night))
3 | Fc1ccc([C@@H]2CCNC[C@H]2COc2ccc3c(c2)OCO3)cc1 [Paroxetine, paroxetine] | 2 (2 moderate (1-2 minutes)) | 2 (2 as 5-8/day (moderate)) | 2 (2 moderate (20-40 minutes)) | 3 | 2 (2 moderate (5-10 wakings/night))
4 | CCCN(CCC)CCc1cccc2c1CC(=O)N2 [Ropinirole, ropinirole] |  |  | 1 (1 being mild (15-20 minutes)) | 0 | 1 (1 being mild (1-5 wakings/night))
